Library screening results

The values are deposited in ChEMBL (CHEMBL3988442, “University of Dundee, Small-Polar-MMV Screening Library” (2021)).

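Viability assay of Plasmodium falciparum sporozoites; the read-out is not stated. The concentration is filed as 10 mM, unlikely as a test dose, so the dose is not known. The record gives no direction; compounds that gave an IC50 in retests scored well above the rest, so higher reads as lower viability. Strong results were mostly tested again. About 34,000 compounds were tested under these conditions; 0.84% (about 280) showed 50% or more at least once.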

Results are given as percent effect.
How 0% and 100% were set is not recorded. Most values in the screen are low, and negative values occur.
Compounds were drawn at random from those tested, without regard to their results.
Two or more numbers in one place are separate tests of the same structure; such repeats can differ widely.

| Compound | effect |
|---|---|
| `CCOCC1c2c(cnn2CC2CC2)CCN1Cc1nccs1.O=C(O)C(F)(F)F.O=C(O)C(F)(F)F` (centres undefined) | 1.349% |
| `C[S+]([O-])CCCNC(=O)c1cc(Br)c2c(c1)OCCO2` (centres undefined) | -12.23% |
| `CCC(O)CN1CCN(C(=O)Cc2ccc(C)nc2)CC1` (centres undefined) | 7.779% |
| `Cc1nc(C)n(CC2CCCN2CCOc2ccccc2C#N)n1` (centres undefined) | 9.103% |
| `c1cc(-c2nnc(C3CCCN(CC4CCCCC4)C3)o2)ccn1` (centres undefined) | -7.544% |
| `O=C(Nc1ccccc1F)N(CCO)CCOCC(F)(F)F` | -12.11% |
| `Cc1ccc(CC2CCCN2CC(=O)NCc2cccnc2)cc1` (centres undefined) | -4.171% |
| `FC(F)(F)c1nc(NC2CCCCC2)c2ccccc2n1` | -1.433% |
| `CSc1cccc(CN(C)C(=O)c2cccc(C3CCCNC3)c2)c1` (centres undefined) | -35.23% |
| `N#Cc1cn(C2CC2)c(=O)n(Cc2noc(-c3cccs3)n2)c1=O` | -0.9989% |
| `c1ccc(CN2CCCC2Cn2cncn2)nc1` (centres undefined) | -6.661% |
| `CCOCC1CN(Cc2cnn(C)c2)Cc2ncn(CC3CC3)c21` (centres undefined) | -1.23% |
| `CCOc1ccc(CC(CNC(=O)c2occc2C)C(N)=O)cc1` (centres undefined) | -10.4% |
| `CC(C)CC(NC(=O)c1cccs1)c1nc2cccnc2n1C` (centres undefined) | 0.3229% |
| `Cc1ccc(-c2nc(CN(C)C3CCS(=O)(=O)C3)cs2)o1` (centres undefined) | -16.8% |
| `O=C(O)C(F)(F)F.[H][C@]12CN(Cc3cccc(Cl)c3)C[C@@]1([H])OCCN(C(C)=O)C2` | -24.52% |
| `Cc1cc(C(=O)N2CCn3cc(CN(C)C)nc3C2)no1` | -8.162% |
| `O=C(c1cccc(N2CCCC2=O)c1)N1CCCC(n2cncn2)C1` (centres undefined) | 14.08% |
| `Cc1ccc(C(=O)N2CCc3ccc(=O)n(CCN(C)C)c3CC2)o1.O=C(O)C(F)(F)F` | -14.65% |
| `COc1cccc2cc(CNC(=O)N3CCC(N4CCCC4)C3)oc12` (centres undefined) | 5.225% |
| `Cc1cc(C)nc(CCNC(=O)[C@H]2CNC[C@@H](C(=O)N3CCCC3)C2)n1` | -8.887% |
| `COc1cccc(C(=O)N2CCN(Cc3nc(C(C)C)no3)CC2)c1` | 8.441% |
| `c1ccc(CCN2CCC(OCC3CCCCO3)CC2)nc1` (centres undefined) | -9.602% |
| `N#CC1(NC(=O)c2cc(Cl)c3c(c2)OCCCO3)CCC1` | -20.59% |
| `Cc1nn(C)c(N2CCOCC2)c1CNCc1ccccc1CO` | 6.586% and 10.36% and 1.054% |
| `CC(C)Oc1ccc(CNC(=O)NCc2ccncc2)cc1F` | 13.32% |
| `CCCc1nnc(N2CCC3(CC2)CC(=O)NC(=O)C3)o1` | -2.599% |
| `CCc1ccc(C(CNC(=O)c2c(C)noc2C)N(C)C)cc1` (centres undefined) | -17.76% and -26.22% and 7.775% |
| `CCC(=O)NCC(=O)NCC1CCN(c2cc(Cl)ccc2C)C1` (centres undefined) | 3.419% |
| `CN(C)C(=O)c1sc2ncccc2c1C1CNCCO1.Cl` (centres undefined) | -1.679% |
| `O=C(O)C(F)(F)F.O=C(O)C(F)(F)F.[H][C@@]12CCCO[C@]1([H])[C@H](N(C)Cc1ccco1)CN2Cc1cnn(C)c1` | 13.11% |
| `O=C(CCCc1cccs1)N1CCC(N2CCNC2=O)CC1` | 40.17% and -17.97% and -26.97% |
| `CCCn1cc(CN2CCCC2c2cccc(-n3ccnc3)n2)cn1` (centres undefined) | 11.33% |
| `O=C(O)C(F)(F)F.[H][C@@]12OCCN(S(=O)(=O)CC)[C@@]1([H])CC[C@H]2OCCCn1cccn1` | -14.61% |
| `Cc1ccc(CNC(=O)N2CCc3ccccc3C2CO)s1` (centres undefined) | -16.3% |
| `Cc1cccc(C(=O)NCCCN2CCN(c3ccccc3)CC2)c1` | 1.899% |
| `O=C(O)C(F)(F)F.[H][C@@]12CN(CC3CC3)C[C@]1([H])C(=O)N(Cc1cccc(F)c1)C2` | -10.29% |
| `CCNC(=O)CCc1c(C)nc2cc(O)nn2c1C` | 8.504% |
| `CC1CN(C(=O)c2cscn2)c2ccccc2S1` (centres undefined) | -22.58% |
| `CCN1Cc2c(C(=O)NC)ncn2-c2ccccc2S1(=O)=O` | 2.862% |
| `Cc1ccn2ncc(C(=O)N3CCCC(n4cccn4)C3)c2n1` (centres undefined) | 10.43% |
| `[H][C@@]12C[C@H](C(=O)NC)[C@@]([H])(CN(C(=O)Nc3ccc(F)cc3)C1)O2` | -5.922% |
| `O=C(Nc1ccc(-c2nnc[nH]2)cc1)C1CCN1Cc1ccccc1` (centres undefined) | -4.563% |
| `Cc1cnn(CC2CN(Cc3nc(C)c(C)o3)CCO2)c1` (centres undefined) | 18.47% |
| `O=C(O)C(F)(F)F.O=C1NCC[C@]12CN(CC1CCOCC1)C[C@H]2c1ccccc1` | 5.223% |
| `CCC(O)CN1CCN(C(=O)c2ccn(-c3ccccc3)n2)CC1` (centres undefined) | 1.654% |
| `CNC1CCN(C2CCN(c3ccc(-c4ccco4)cc3)CC2)CC1` | 41.2% and 47.48% |
| `Cc1cc(NCCO)nc(-c2ccccc2O)n1` | -27.2% and -23.08% |
| `CCOCCN1CCC(C(=O)c2cc(F)ccc2F)CC1` | 10.47% |
| `Cc1n[nH]c(=O)c2c(NC(=O)CN3CCOCC3C)oc(C)c12` (centres undefined) | -6.709% and -17.78% and -7.035% |

Some entries from above, unchanged:

Compound,effect
Cc1nn(C)c(N2CCOCC2)c1CNCc1ccccc1CO,6.586% and 10.36% and 1.054%
CCN1Cc2c(C(=O)NC)ncn2-c2ccccc2S1(=O)=O,2.862%
c1ccc(CN2CCCC2Cn2cncn2)nc1 (centres undefined),-6.661%